Here are results for one molecule from paper doi:10.1101/2023.08.20.554024.

The target in test [1] is CTD(GbacOCP3) apoform (Gloeobacter kilaueensis JS1). The experiment in a line: SEC. On the technique in general: SEC sorts molecules by how far they enter the pores of the column.
The target in test [2] is CTD(GbacOCP3) holoform (Gloeobacter kilaueensis JS1). The experiment in a line: SEC.

These are yes or no findings as the source states them, for the method shown.

B1: Fluorescence Recovery Protein from Synechocystis sp. PCC 6803 (protein, UniProt P74103 1-109)
chain: MLQTAEAPWSQAETQSAHALFRKAYQRELDGLLATVQAQASQITQIDDLWKLHDFLSAKRHEIDGKYDDRQSVIIFVFAQLLKEGLVQAEELTFLAADKQSKIKALARL
Take B1: the binding result in test [1] and in test [2] was “no binding” in each case.
